# In PubChem BioAssay AID2685 (National Center for Advancing Translational Sciences (NCATS), 2010):
# In all, about 320,000 compounds went through this assay and about 2,100 (0.66%) were called active. Inconclusive means that the source gave no clear call. Such entries were picked first, then a sample of the others. The call rests on the fitted dose curve; in most records, active means well fitted inhibition curve with a large enough effect in the signal ratio, with a control signal flat (not every such curve was filed as active); inconclusive means small, poorly fitted or top-dose-only effect, or effect the other way, or a change in a side signal; inactive means flat fitted curve, though single readings scatter; the % refers to the signal ratio. Potencies beside an inconclusive call are fits to weak or partial responses and may not hold up.
# Experiment: qHTS Assay for Lipid Storage Modulators in Drosophila S3 Cells
# Conditions: BODIPY lipid droplet fluorescence, 18-24 h, cells fed with added oleic acid; lipid storage change, negative = inhibition: at 46.1 µM (top of the series) unless noted
# Outline: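 Drosophila S3 cells got compounds at several concentrations plus oleic acid (400 uM solution). Laser-scanning cytometry with 488 nm excitation read lipid droplets at 500-530 nm and cells at 575-640 nm. Percent activity was relative to 20 uM Triacsin C.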
# On the % scale 0 is the no-effect control and ±100 the full control effect; potency means the concentration at half of the fitted maximal effect.
Structure (SMILES),Potency,"lipid storage change, negative = inhibition",outcome
C/C(=N\NC(=O)c1c(Cl)c(C)nn1C)c1cccc(NC(=O)c2cccc(F)c2)c1,"inconclusive: 20 µM [cytotoxic, partial curve, poor fit]",,
CC1CN(Cc2ccccc2)c2nc3c(c(=O)n(CC(N)=O)c(=O)n3C)n2C1 (stereo not drawn),"inconclusive: 18.4 µM [activator, single point]",,
Cc1ccc(S(=O)(=O)Nc2ccc3c(c2)CCC3)cc1C,"inconclusive: 29.1 µM [cytotoxic, single point]",,
COc1ccc(-c2cc(-c3ccccc3)nc(Cl)n2)cc1OC,"inconclusive: 29.1 µM [falling, single point]",,
O=C(Nc1ccc(N2CCN(C(=O)c3ccc(Cl)cc3)CC2)cc1)c1ccc2c(c1)OCCO2,,inconclusive: -6.6%,
COc1ccc(/C=N/NC(=O)c2ccccc2O)cc1COc1ccccn1,,inconclusive: -23.5%,
COc1ccc(C2Nc3cccc4cccc(c34)N2)cc1Br,,inconclusive: -13.4%,
CN(C)/N=C/c1cc([N+](=O)[O-])ccc1O,"inconclusive: 0.461 µM [falling, full curve, poor fit]",,
Brc1ccc(OCc2nc(-c3ccccn3)n[nH]2)cc1,"inconclusive: 6.51 µM [activator, single point]",,
C/C(CC(=O)Nc1ccc(C)c(Cl)c1)=N\NC(=O)c1ccncc1,,inconclusive: 12.8%,
CCCCCCNC(=O)CC(NS(=O)(=O)c1ccc(NC(C)=O)cc1)C(C)C (stereo not drawn),,inconclusive: 14.5%,
COc1ccc(OC(C)C(=O)N2CCc3ccccc3C2)cc1 (stereo not drawn),,inconclusive: 39.8%,
C=CCNC(=S)N/N=C/c1ccccc1OCCOc1ccccc1,,inconclusive: 11.8%,
CC(=O)Nn1cnc2c(c1=O)C1(CCCCC1)Cc1ccccc1-2,"inconclusive: 29.1 µM [rising, single point]",,
CSc1ccccc1NC(=O)c1ccc(N2CC3CC(C2)c2cccc(=O)n2C3)c(NC(=O)c2ccncc2)c1 (stereo not drawn),,inconclusive: -0.645%,
Nc1ccc(S(=O)(=O)NC2=NCCCCC2)cc1N,,inconclusive: 33.4%,
Cc1cc(=O)[nH]c(SCC2COC3(CCCCC3)O2)n1 (stereo not drawn),,inconclusive: 36.7%,
CC1CCN(S(=O)(=O)c2ccc(NC(=O)Cn3nnc(-c4ccccc4F)n3)cc2)CC1,"inconclusive: 1.3 µM [activator, partial curve]",,
CN(Cc1ccc(Br)cc1)C(=O)CCN1C(=O)c2cccc([N+](=O)[O-])c2C1=O,"inconclusive: 14.6 µM [falling, partial curve, poor fit]",,
O=C(CN1C(=O)NC2(CCCC2)C1=O)Nc1cc(Cl)ccc1N1CCOCC1,,inconclusive,
COc1cc2c(cc1NC(=O)CSc1ccc(Cl)cc1)oc1ccccc12,,inconclusive: 24.5%,
Cc1ccccc1N1CCN(C2CCCN(C(=O)CCN3CCCCO3)C2)CC1 (stereo not drawn),"inconclusive: 29.1 µM [activator, single point]",,
O=C(NNC(=S)NCc1ccccc1)c1ccccc1OC(F)F,,inconclusive: 24.8%,
CN1C(=O)CS/C1=N\NC(=O)COc1cccc2cccnc12,"inconclusive: 13 µM [falling, partial curve]",,

# Taken from above.
# `Cc1ccc(S(=O)(=O)Nc2ccc3c(c2)CCC3)cc1C` | Potency: inconclusive: 29.1 µM [cytotoxic, single point]
# `Brc1ccc(OCc2nc(-c3ccccn3)n[nH]2)cc1` | Potency: inconclusive: 6.51 µM [activator, single point]

# The list continues:

Structure (SMILES),Potency,"lipid storage change, negative = inhibition",outcome
Cc1ccc(NC(=O)COC(=O)/C=C/c2c(C)nn(-c3ccc(F)cc3)c2Cl)cc1F,,inconclusive: 33.6% [activator],
CCOc1ccccc1NC(=O)C(NCCN(C)C)c1ccccc1 (stereo not drawn),,inconclusive: -24.6%,
COC(=O)COc1ccc(S(=O)(=O)Nc2ccc(NC(C)=O)cc2)cc1,active: 3.66 µM,,
CNc1ncc(C(=O)C(C)(C)C)s1,,inconclusive: 1.62%,
COc1ccc(-c2oc3ccccc3c2C(=O)Oc2ccccc2)cc1,"inconclusive: 29.1 µM [activator, single point]",,
O=C(Cn1ncc(Cl)c(Cl)c1=O)N1CCN(S(=O)(=O)c2ccc3ccccc3c2)CC1,"inconclusive: 14.6 µM [falling, single point]",,
Cc1ccc(CCN2C(Nc3ccccc3)=NC[C@@H]2C)cc1,"inconclusive: 32.6 µM [falling, partial curve, poor fit]",,
COc1cccc(C(=O)OCCN2CCOCC2)c1,,inconclusive: 38.1%,
CN=C1S/C(=C\c2ccc(N3CCOCC3)cc2C)C(=O)N1C,,inconclusive: 28.6%,
COc1cccc(-c2nnc(SC(C(=O)c3c[nH]c4ccccc34)c3ccccc3)n2C)c1 (stereo not drawn),"inconclusive: 1.46 µM [activator, partial curve]",,
COc1ccc(OC)c(C(C)NC(=O)C(C)Cc2ccccc2)c1 (stereo not drawn),,inconclusive: -26.1%,
O=C(CN1C(=O)c2cccnc2Oc2ccc(Cl)cc21)NCCc1ccccc1,,,inactive [at 46.1 µM]
CCN(CC)CCCNc1ccc(-c2nnc(-c3ccc(OCC(C)C)cc3)o2)cn1,,inconclusive: 107%,
O=C1C=C(Nc2cccc(Cl)c2)CC(c2ccco2)C1 (stereo not drawn),"inconclusive: 2.06 µM [rising, partial curve]",,
C/C(=N\NC1=NCCN1)c1ccc(Cl)cc1,,inconclusive: -13.6%,
c1ccc2c(-c3nnc4n3CCCCC4)c[nH]c2c1,"inconclusive: 29.1 µM [falling, single point]",,
Cc1ccccc1OCC(=O)NCCN1CCCC1,,inconclusive: 54.3%,
CCN(CC)S(=O)(=O)c1cc(OC)c(Cl)cc1Cl,,inconclusive: 0.199%,
O=C(c1cccc([N+](=O)[O-])c1)N1CCN(C(=O)c2ccco2)CC1,,inconclusive: -49.3% [at 0.00295 µM],
Nc1c(C(=O)NCc2cccs2)nnn1CC(=O)Nc1cccc(Cl)c1,,inconclusive: -29.6%,
Cc1cc2ccccc2c(=O)n1CC(=O)NCC(=O)N1CCN(c2cccc(Cl)c2)CC1,,inconclusive: -19.9%,
CC(C)(C)c1ccc(OCC(=O)NNC(=S)NC(=O)c2ccccc2[N+](=O)[O-])c(Br)c1,,inconclusive: -44.7%,
Cn1c(CC(=O)Nc2ccccc2F)nnc1SCC(=O)Nc1ccccc1Br,,inconclusive: 34.5%,
COC(=O)c1sc(=S)n(-c2ccccc2)c1N,active: 11.6 µM,,
